From the supplement of paper PMC6445147
This is a noisy data set.

B1: human tRNA-Pro; a variant is named by its letters at N, in order (parent)
chain: GGCTCGTTGGTCTAGNGGTATGATTCTCGCTTAGGGTGCGAGAGGTCCCGGGTTCNNATCCCGGACGAGCCC

Tests used:
[1] = variants of: B1; assay: tRNA Pol-III promoter activity, log2 (circRNA frequency / plasmid DNA frequency) (log2 ratio); higher = stronger promoter activity; conditions: HEK293T; construct: no Pol-II promoter ((-)CMV library)
[2] = variants of: B1; assay: tRNA 3' processing efficiency (processed reads / all reads, maximum-likelihood estimate) (fraction); higher = more efficient 3' processing; conditions: HEK293T; construct: no Pol-II promoter ((-)CMV library)
[3] = variants of: B1; assay: tRNA 5' processing efficiency (processed reads / all reads, maximum-likelihood estimate) (fraction); higher = more efficient 5' processing; conditions: HEK293T; construct: CMV Pol-II promoter ((+)CMV library, decapped)

Row | Variant | tRNA Pol-III promoter activity (log2) [1] | tRNA 3' processing efficiency [2] | tRNA 5' processing efficiency [3]
1 | GTC T8G | 3.72 | 0.5 | 
2 | GTG G9T | 3.75 | 0.14 | 
3 | GAA A14C G15C T53A A58G |  | 0.4 | 
4 | GAA A14C G51A |  | 0.29 | 
5 | TTA T53A | 3.27 | 0.5 | 
6 | TTA T53C | 3.74 | 0.57 | 
7 | CTC A14T | 3.93 | 0.25 | 
8 | GAA A14T G15C T19G T53A A58G |  | 0.54 | 
9 | GAA A14C T19C A58G |  | 0.31 | 
10 | ATG G15A | 3.23 | 0.25 | 
11 | AAA A14G T54A |  | 0.33 | 
12 | GTA T53C | 3 | 0.86 | 0.17
13 | GTA T53G | 1.37 | 0.51 | 
14 | GTA T53A | 1.82 | 0.13 | 
15 | AAA A14T T19G A58C T59G |  | 0.25 | 
16 | GTA T8G T19G A58G | 4.94 | 0.25 | 
17 | GTT A14G | 1.42 | 0.25 | 
18 | GTT A14C | 4.5 | 0.3 | 
19 | GAA A14G G18T A58T T59C |  | 0.2 | 
20 | TAA A14T G15A T59C |  | 0.2 | 
21 | GAA A14T T19A A20C T59G |  | 0.25 | 
22 | CTG T19A | 5.93 | 0.25 | 
23 | GAA A14C G18A T53C A58T |  | 0.25 | 
24 | GTA T19C A58T | 4.62 | 0.31 | 
25 | GTA T19C A58G | 5.62 | 0.11 | 0.2
26 | TTC A20T | 6.94 | 0.75 | 

Single values from the entries so far:
Under tRNA 3' processing efficiency [2], GTG G9T is listed with 0.14
Under tRNA Pol-III promoter activity (log2) [1], CTC A14T is listed with 3.93

Another view of some results above.
Row	Variant	tRNA Pol-III promoter activity (log2) [1]	tRNA 3' processing efficiency [2]	tRNA 5' processing efficiency [3]
13	GTA T53G	1.37	0.51	
14	GTA T53A	1.82	0.13	
15	AAA A14T T19G A58C T59G		0.25	
16	GTA T8G T19G A58G	4.94	0.25	
17	GTT A14G	1.42	0.25	

More entries.

Row | Variant | tRNA Pol-III promoter activity (log2) [1] | tRNA 3' processing efficiency [2] | tRNA 5' processing efficiency [3]
27 | GTC G18A | 5.31 | 0.82 | 
28 | TAA A14C G17A T19G T59G |  | 0.2 | 
29 | GAA A20G A43T T54A |  | 0.5 | 
30 | GAA A14G G63A |  | 0.14 | 
31 | CTA T53G | 3.44 | 0.2 | 
32 | GAA A14C G15C A20C T59C |  | 0.17 | 
33 | GTC G15T G17T | 5.34 | 0.62 | 
34 | TTA T53G A58T | 6.51 | 0.17 | 
35 | GTC A14G | 3.09 | 0.2 | 
36 | GTA T19A T59A | 4.53 | 0.25 | 
37 | TTC T19C | 5.62 | 0.17 | 
38 | GAA A14T T19G A20T T59C |  | 0.33 | 
39 | CTG T19G A58G | 4.03 | 0.25 | 
40 | CAA A14C G15C T59C |  | 0.4 | 
41 | ATG A14G | 8.45 | 0.22 | 
42 | CTA T54A T59A | 5.26 | 0.2 | 
43 | CAA A14C A20T T53A |  | 0.29 | 
44 | TAA A14G A20G T53C A58G |  | 0.57 | 
45 | TAA A20C A58C T59G |  | 0.17 | 
46 | GAA A14T T53A A58G T59A |  | 0.56 | 
47 | TAA A14T A20C A58G T59A |  | 0.39 | 
48 | CAA A14C A20T A58T T59G |  | 0.4 | 
49 | CTG T53G | 6.36 | 0.2 | 
50 | GAA A14T T19A A58T T59C |  | 0.2 | 
51 | GTT | 2.87 | 0.36 | 
52 | GTC | 1.09 | 0.43 | 

Row | Variant | tRNA Pol-III promoter activity (log2) [1] | tRNA 3' processing efficiency [2] | tRNA 5' processing efficiency [3]
53 | GTG | 3.09 | 0.21 | 
54 | GTT A14G A58G | 8.12 | 0.76 | 
55 | GTT G17T | 2.48 | 0.25 | 
56 | GTT G17C | 6.36 | 0.04 | 
57 | GTT G17A | 2.94 | 0.2 | 
58 | GTT G9T | 2.55 | 0.2 | 
59 | GTT G9A | 2.22 | 0.25 | 
60 | GAA A14G G17T T53A A58T T59A |  | 0.17 | 
61 | CTG A20T | 2.07 | 0.13 | 
62 | GTG A14T | 1.94 | 0.62 | 
63 | GTG A14G | 2.3 | 0.17 | 
64 | AAA A14T T31C A58T |  | 0.4 | 
65 | AAA A14T G50A A58G |  | 0.15 | 
66 | GTA T53C A58T | 4.14 | 0.79 | 
67 | GTA T54G | -0.865 | 0.5 | 
68 | GTA T54A | -0.357 | 0.45 | 
69 | CTA T19A | 3.12 | 0.25 | 
70 | CTA T19G | 3.04 | 0.57 | 
71 | GAA A14C G18A T53A T59G |  | 0.5 | 
72 | ATA T53A | 2.93 | 0.17 | 
73 | ATA T53G | 3.25 | 0.22 | 
74 | ATC A58C | 5.71 | 0.06 | 
75 | CAA A14G A58C T59C |  | 0.39 | 
76 | GAA A14G G15T A20T T59C |  | 0.11 | 
77 | TTA T19G A58G | 7.16 | 0.04 | 
78 | TTA T19G A58T | 4.45 | 0.5 | 

Row | Variant | tRNA Pol-III promoter activity (log2) [1] | tRNA 3' processing efficiency [2] | tRNA 5' processing efficiency [3]
79 | CAA A14C T53A |  | 0.17 | 0.6
80 | CAA A14C T19A A20T A58C |  | 0.25 | 
81 | GTT A58G | 3.28 | 0.46 | 
82 | CTT A14T | 4.94 | 0.25 | 
83 | GTA T53A T59C | 3.93 | 0.14 | 
84 | GTA T53A T59G | 2.86 | 0.25 | 
85 | GTA T19A A58T | 4.73 | 0.35 | 
86 | GTA T19A A58C | 4.26 | 0.33 | 
87 | GTA T19A A58G | 4.77 | 0.26 | 
88 | CAA A14T A20C T53A T54A |  | 0.14 | 
89 | GTT T59C | 3.32 | 0.25 | 
90 | CAA A14C A58T T59G |  | 0.17 | 
91 | ATA T19G A58G | 5.94 | 0.13 | 
92 | GAA A14G G15T T19A T59A |  | 0.6 | 
93 | GAA A14G G17A A20C T53A |  | 0.33 | 
94 | GAA A14G G51A T53A |  | 0.4 | 
95 | GAA A14T T19G C55T A58G |  | 0.23 | 
96 | TTG | 5.95 | 0.17 | 
97 | TTT | 3.18 | 0.32 | 
98 | TTC | 9.06 | 0.02 | 
99 | GTG A20C | 6.62 | 0.33 | 
100 | GTG A20T | 3.36 | 0.67 | 
101 | GAA A14C G15T T19A A58G T59G |  | 0.5 | 
102 | GTA T59A | 2.43 | 0.33 | 
103 | GTA T59C | 2.83 | 0.43 | 
104 | GTA T59G | 0.908 | 0.44 | 

Row | Variant | tRNA Pol-III promoter activity (log2) [1] | tRNA 3' processing efficiency [2] | tRNA 5' processing efficiency [3]
105 | GAA A14T G15C G18A T59A |  | 0.25 | 
106 | GAA A14T A20G A58T T59C |  | 0.25 | 
107 | GTA T53C C55T | 3.28 | 0.14 | 
108 | GAA A14G G15T G18A T19C T53G T59C |  | 0.2 | 
109 | GAA A14G T19A A20G T59C |  | 0.57 | 
110 | GAA A14G T19A A58G T59A |  | 0.25 | 
111 | GTA T19G T53G | 5.03 | 0.33 | 
112 | CAA A14T A20T T59G |  | 0.8 | 
113 | GTC T59C | 3.57 | 0.14 | 
114 | TAA A14C A20T A58T |  | 0.17 | 
115 | TTA T59A | 6.08 | 0.88 | 
116 | TTA T59G | 4.25 | 0.35 | 
117 | TTA T59C | 5.2 | 0.25 | 
118 | GTG A58T | 1.79 | 0.25 | 
119 | GTG A58G | 5.16 | 0.43 | 
120 | GTC G15A | 2.86 | 0.25 | 
121 | GTC G15T | 4.46 | 0.1 | 
122 | GAA A14T G17T A20G A58G |  | 0.57 | 
123 | GTC A14T G15C | 7.39 | 0.55 | 
124 | GTG T59C | 6.2 | 0.06 | 
125 | GTG T59G | 4.34 | 0.25 | 
126 | GAA A14C G18C A58G T59A |  | 0.17 | 
127 | TAA A14G A20T T53A |  | 0.17 | 
128 | GTG G9A A20T A58T | 6.1 | 0.67 | 
129 | TAA A14G T54A C55G |  | 0.2 | 
